Experimental data as given in patent US20030162221A1.
Results are given in words; binding and its absence hold for the method and conditions named. In cells and extracts the contact can be indirect. Some results given as binding are weak or reduced against the parent protein; the word gives no strength. For part of these data: Sequences can lack the tags named with a protein.

Amino acid sequences for entries named in this document (tags omitted).
UniProt Q00416: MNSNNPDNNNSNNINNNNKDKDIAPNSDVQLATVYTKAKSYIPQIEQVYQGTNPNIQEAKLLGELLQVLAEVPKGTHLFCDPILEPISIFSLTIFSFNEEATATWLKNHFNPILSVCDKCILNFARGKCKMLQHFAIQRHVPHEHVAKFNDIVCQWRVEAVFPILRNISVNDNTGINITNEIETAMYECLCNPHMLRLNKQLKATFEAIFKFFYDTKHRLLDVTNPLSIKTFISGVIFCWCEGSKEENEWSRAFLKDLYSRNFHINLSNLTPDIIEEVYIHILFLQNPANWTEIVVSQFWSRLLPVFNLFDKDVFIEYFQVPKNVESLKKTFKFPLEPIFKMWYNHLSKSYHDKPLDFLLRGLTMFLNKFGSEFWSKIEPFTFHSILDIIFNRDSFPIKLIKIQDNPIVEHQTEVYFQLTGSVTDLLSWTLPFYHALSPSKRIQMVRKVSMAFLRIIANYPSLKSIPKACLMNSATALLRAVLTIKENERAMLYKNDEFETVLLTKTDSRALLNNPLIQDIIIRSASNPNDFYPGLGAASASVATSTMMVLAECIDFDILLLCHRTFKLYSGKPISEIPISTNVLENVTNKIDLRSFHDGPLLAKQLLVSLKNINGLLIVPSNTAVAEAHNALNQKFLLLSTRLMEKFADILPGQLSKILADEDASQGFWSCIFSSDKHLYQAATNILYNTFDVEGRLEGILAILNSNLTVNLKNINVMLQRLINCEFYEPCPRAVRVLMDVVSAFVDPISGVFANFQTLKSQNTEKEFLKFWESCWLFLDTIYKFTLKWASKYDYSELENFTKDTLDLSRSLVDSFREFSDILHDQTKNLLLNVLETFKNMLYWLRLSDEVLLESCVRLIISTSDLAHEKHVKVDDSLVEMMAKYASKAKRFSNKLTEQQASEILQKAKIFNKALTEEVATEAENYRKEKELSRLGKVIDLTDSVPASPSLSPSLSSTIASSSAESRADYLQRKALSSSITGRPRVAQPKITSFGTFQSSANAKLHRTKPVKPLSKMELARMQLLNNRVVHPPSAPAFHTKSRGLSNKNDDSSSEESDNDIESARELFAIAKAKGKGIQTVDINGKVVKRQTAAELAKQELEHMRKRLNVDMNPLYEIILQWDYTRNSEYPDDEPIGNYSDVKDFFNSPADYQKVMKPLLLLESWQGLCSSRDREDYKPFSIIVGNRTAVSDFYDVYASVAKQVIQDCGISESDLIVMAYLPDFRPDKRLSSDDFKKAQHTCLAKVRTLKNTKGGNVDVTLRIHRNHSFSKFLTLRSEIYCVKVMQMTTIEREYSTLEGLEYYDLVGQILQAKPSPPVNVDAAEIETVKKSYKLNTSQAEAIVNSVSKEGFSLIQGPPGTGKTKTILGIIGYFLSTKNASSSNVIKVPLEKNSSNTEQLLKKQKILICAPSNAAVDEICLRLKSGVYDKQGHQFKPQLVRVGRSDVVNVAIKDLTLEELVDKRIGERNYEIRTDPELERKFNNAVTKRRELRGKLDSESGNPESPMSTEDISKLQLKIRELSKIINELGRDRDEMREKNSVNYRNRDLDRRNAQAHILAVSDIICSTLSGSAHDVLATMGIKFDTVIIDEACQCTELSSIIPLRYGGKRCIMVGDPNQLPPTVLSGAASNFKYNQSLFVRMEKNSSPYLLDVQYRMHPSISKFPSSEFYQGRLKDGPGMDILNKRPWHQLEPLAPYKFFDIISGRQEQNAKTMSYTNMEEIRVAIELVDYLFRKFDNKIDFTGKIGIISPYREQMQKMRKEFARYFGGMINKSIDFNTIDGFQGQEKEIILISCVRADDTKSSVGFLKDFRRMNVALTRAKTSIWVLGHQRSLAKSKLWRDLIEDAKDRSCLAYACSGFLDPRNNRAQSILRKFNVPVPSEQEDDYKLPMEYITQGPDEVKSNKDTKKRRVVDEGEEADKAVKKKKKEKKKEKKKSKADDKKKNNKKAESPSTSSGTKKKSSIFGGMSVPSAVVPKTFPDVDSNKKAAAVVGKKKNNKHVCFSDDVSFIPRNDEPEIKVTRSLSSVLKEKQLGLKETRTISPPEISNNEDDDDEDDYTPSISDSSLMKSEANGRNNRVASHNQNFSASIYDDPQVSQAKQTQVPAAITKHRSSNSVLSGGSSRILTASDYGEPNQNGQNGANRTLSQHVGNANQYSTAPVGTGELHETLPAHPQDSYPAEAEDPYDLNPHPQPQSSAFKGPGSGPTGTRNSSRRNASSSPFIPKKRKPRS
UniProt P32598: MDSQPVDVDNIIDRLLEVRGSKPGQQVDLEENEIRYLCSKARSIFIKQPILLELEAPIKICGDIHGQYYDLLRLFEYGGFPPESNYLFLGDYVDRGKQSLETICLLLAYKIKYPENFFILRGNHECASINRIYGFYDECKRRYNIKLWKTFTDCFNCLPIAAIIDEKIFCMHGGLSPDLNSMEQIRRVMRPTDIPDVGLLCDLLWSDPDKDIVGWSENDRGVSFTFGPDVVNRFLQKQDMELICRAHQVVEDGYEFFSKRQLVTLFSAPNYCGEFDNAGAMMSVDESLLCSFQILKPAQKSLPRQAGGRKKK

Experiments:
Assay in all cases: anti-FLAG co-IP, LC-MS/MS
[1] = target: T1, Cft1 (Saccharomyces cerevisiae) (UniProt Q06632)
T1 sequence (looked up): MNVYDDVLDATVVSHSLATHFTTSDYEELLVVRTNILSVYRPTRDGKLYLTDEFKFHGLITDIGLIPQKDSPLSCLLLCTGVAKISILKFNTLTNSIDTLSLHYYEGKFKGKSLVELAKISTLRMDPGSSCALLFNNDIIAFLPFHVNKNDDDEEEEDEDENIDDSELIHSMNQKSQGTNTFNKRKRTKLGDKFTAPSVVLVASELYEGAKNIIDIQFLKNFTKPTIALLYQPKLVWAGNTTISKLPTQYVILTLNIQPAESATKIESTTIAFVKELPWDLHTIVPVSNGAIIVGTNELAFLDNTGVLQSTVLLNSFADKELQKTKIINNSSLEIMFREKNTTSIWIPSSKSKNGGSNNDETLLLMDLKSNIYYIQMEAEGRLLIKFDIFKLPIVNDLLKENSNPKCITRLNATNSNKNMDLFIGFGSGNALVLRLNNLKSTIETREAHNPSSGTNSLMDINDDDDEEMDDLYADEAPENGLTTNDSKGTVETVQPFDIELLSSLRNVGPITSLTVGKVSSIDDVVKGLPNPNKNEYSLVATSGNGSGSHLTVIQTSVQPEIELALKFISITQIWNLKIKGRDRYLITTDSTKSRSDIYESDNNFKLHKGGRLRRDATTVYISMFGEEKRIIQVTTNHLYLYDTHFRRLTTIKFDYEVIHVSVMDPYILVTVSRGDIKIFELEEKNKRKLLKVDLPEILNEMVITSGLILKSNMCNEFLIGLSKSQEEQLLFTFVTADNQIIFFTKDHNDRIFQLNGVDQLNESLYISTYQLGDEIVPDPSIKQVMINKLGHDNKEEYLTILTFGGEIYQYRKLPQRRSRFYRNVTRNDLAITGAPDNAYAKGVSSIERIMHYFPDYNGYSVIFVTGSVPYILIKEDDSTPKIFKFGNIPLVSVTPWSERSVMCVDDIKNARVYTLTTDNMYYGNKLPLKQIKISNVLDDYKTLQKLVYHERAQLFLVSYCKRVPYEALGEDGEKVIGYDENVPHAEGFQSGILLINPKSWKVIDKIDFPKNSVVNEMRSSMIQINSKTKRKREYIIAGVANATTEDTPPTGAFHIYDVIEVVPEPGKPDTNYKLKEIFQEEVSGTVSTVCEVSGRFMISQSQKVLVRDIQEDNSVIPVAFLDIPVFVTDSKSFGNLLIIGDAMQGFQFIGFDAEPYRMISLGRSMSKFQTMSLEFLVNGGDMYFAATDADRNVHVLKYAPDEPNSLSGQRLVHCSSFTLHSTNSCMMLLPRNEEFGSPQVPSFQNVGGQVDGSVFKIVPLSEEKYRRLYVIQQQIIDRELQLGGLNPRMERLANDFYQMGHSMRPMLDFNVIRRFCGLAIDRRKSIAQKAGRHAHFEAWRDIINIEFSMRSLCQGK

[2] = target: T2, Sds22 (Saccharomyces cerevisiae) (UniProt P36047)
T2 sequence (looked up): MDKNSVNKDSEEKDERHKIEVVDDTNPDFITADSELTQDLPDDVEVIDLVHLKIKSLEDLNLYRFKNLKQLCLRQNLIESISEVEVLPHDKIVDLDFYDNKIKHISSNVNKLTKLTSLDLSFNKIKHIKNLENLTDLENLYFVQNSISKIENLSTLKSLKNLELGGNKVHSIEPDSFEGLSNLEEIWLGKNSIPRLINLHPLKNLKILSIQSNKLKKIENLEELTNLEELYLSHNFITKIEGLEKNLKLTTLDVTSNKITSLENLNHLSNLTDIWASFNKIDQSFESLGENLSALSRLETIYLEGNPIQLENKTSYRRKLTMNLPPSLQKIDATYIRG

[3] = target: Sen1 (Saccharomyces cerevisiae) (UniProt Q00416)

Measured: binding

Glc7 (from UniProt P32598 1-312)
binds: all assays above
